Laboratory results reported in article PMC3513293.
These are yes or no findings as the source states them, for the method shown. Some entries that bind do so weakly or less than the wild type.

Target: T1, p47 (UniProt O35987)
T1 sequence: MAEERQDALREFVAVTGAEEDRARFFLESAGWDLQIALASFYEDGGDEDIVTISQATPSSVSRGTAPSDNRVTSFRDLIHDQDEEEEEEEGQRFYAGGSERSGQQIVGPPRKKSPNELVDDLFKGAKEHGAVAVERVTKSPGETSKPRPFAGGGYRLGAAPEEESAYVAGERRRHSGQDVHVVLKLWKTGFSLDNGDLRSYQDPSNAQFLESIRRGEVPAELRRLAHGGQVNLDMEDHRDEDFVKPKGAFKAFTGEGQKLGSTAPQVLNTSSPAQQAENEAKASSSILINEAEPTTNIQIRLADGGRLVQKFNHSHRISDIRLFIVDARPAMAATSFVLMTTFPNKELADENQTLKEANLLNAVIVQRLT
Assay: SPR; competition; p47 amine-coupled to CM5 (2000 RU); p97/VCP or p97-N-D1 captured to 500 RU; UN coinjected during dissociation at several concentrations, without or with ATP or ATPγS; 20 μl/min, 25°C, PBS; regeneration with 50 mM NaOH; both purified

binding: binds
Substance: p97/Valosin-containing protein (VCP), full length (from UniProt P55072 1-806) (enzyme)
